PubChem BioAssay AID1259254 | NCATS – 2017
Shown is a random part of about 59,000 deposited reagents. About 1,550 of them (2.6%) count as active. 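G2 share is only a proxy for re-replication; each gene was hit by three separate siRNAs, and active genes were retested.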 Unmarked entries are inactive. The numbers tell different reagents against one gene apart. Not all columns of the deposit are shown. Reagent sequences are not shown. The record does not give: the amount of reagent.

Screen: 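Genome-wide screen for genes that prevent DNA re-replication in cancer cells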 (primary screen)
Cells: human HCT116 colorectal cancer cells
Reagents: single siRNA against human genes
Duration: 3 days
Measurement: 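Imaged Hoechst DNA stain sorts each cell into a cycle phase by DNA amount; per plate, G2 fraction set to 0% for non-targeting and 100% for GMNN siRNA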
Scale: G2 robust z-score: higher = more G2 cells, more excess DNA replication
Call rule: 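Active siRNAs have a G2 robust z of 5 or more median absolute deviations over the median, which in these data means about 38% or higher of GMNN control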

With knock-down of FAM185BP #1, the screen gave G2 robust z-score -0.664. FAM185BP #2 scored G2 robust z-score -0.149. After knock-down of FAM185BP #3, the record shows G2 robust z-score 0.059. Depletion of NPC2 #1 resulted in: G2 robust z-score -0.169. Knock-down of NPC2 #2 resulted in: G2 robust z-score 0.765. Silencing of NPC2 #3 came out at: G2 robust z-score 0.0115.

After knock-down of KHDC4 #1, the screen gave G2 robust z-score 0.988. KHDC4 #2 gave G2 robust z-score 0.361. After knock-down of KHDC4 #3, the record shows G2 robust z-score -0.174. Against FCRL1 #1 the deposit lists G2 robust z-score 0.828. With knock-down of FCRL1 #2 the results were G2 robust z-score -0.588. After knock-down of FCRL1 #3, the record shows G2 robust z-score 0.865.

With knock-down of N4BP2L1 #1, the screen gave G2 robust z-score -1.2. With knock-down of N4BP2L1 #2 the results were G2 robust z-score 9.32 (active). For N4BP2L1 #3 the deposit lists G2 robust z-score 0.852. OMA1 #1 showed G2 robust z-score -1.08. With knock-down of OMA1 #2 the results were G2 robust z-score 0.79. Against OMA1 #3, the entry reads G2 robust z-score -0.525.

ALPG #1 gave G2 robust z-score 12.1 (active). Knock-down of ALPG #2 gave: G2 robust z-score -0.799. With knock-down of ALPG #3, the record shows G2 robust z-score 0.0726. Depletion of DNAJB14 #1 came out at: G2 robust z-score 0.738. Silencing of DNAJB14 #2 resulted in: G2 robust z-score -0.982. With knock-down of DNAJB14 #3, the screen gave G2 robust z-score 0.935.

After knock-down of HEBP2 #1, the record shows G2 robust z-score 1.14. HEBP2 #2 showed G2 robust z-score 4.6. With knock-down of HEBP2 #3, the screen gave G2 robust z-score -0.793. For SCMH1 #1, the entry reads G2 robust z-score -1.32. Depletion of SCMH1 #2 resulted in: G2 robust z-score 0.85. Depletion of SCMH1 #3 came out at: G2 robust z-score 4.76.

Reformatted: 5 of the entries above.
Gene,reagent no.,G2 robust z-score
NPC2,3,0.0115
KHDC4,1,0.988
KHDC4,2,0.361
KHDC4,3,-0.174
FCRL1,1,0.828
